Measured values as given in patent publication US6861431B2, “Compounds capable of modulating the activity of multidrug transporters and therapeutic use of the same” (The Board of Trustees of the University of Illinois, priority 2001, dated 2005).
Entries after “also recorded” stand apart in the source; their conditions may differ. At least one compound was matched to its structure with a doubt left.

Key:
ConA cells = assay: Drug sensitivity (growth inhibition) assay, ConA cells; assay type: cell-based, mouse
Protocol: Drug sensitivity assays. To estimate drug-mediated growth inhibition, 10^3 cells were plated per well of 96-well plates, and incubated with a range of concentrations of drugs added 24 hours after plating. […] After elution by 1% SDS solution, optical density was determined on a Multiscan Ascent reader (Lybsystems, Helsinki, Finland) at 650 nm.

SW1753-A120 cells = assay: Drug sensitivity assay, SW1753-A120 cells (expressing MRP1); assay type: cell-based; conditions: P-gp-negative
Protocol: (§1) To determine transporter specificity of the identified compounds, the compounds were tested on cells differing in the type of multidrug transporter expressed: KB-8-5-11 cells, (expressing P-gp), SW1753-A120 cells (expressing MRP1), and KB-3-1 (expressing neither of the above transporters and highly sensitive to drugs that are P-gp or MRP1 substrates).

P-gp [1] = assay: Rho123 efflux from preloaded ConA cells; assay type: cell-based, mouse; conditions: FIG. 3
Protocol: (§2) Drug accumulation and efflux assay. […] For drug efflux assay, cells after drug incubation were washed thoroughly with PBS, incubated in a drug-free media with or without compounds from the chemical library, and harvested at different time points for flow cytometric analysis (18).
The dynamics of reduction of Rho123 fluorescence was monitored by flow cytometry.

P-gp [2] = assay: Taxol accumulation in ConA cells; assay type: cell-based, mouse; conditions: 2 hours, intracellular radioactivity (FIG. 5)
P-gp [3] = assay: Rho123 accumulation in ConA cells; assay type: cell-based, mouse; conditions: ConA fibroblasts incubated two hours with Rho123 and compound, flow cytometry (FIG. 1)
Protocol: Screening of a chemical library. Murine fibroblastoid cell line (ConA) was selected as the readout system for screening a chemical library for P-gp activators. […] Rho123, a classic fluorescent P-gp substrate that is detected easily using multichannel fluorimeter in living cells, was used as an efflux indicator. […] Primary screening was performed on ConA cells for compounds that interfere with Adr-induced activation of p53-responsive reporter LacZ gene as previously described (11). To identify P-gp modulators, all “hits” isolated after primary screening were tested for their ability to modulate cellular accumulation of Rho123. Con A cells grown in 96-well plates were incubated 4 hours with 0.5 μM Rho123 in combination with individual library compounds (2 μg/ml (2-5 μM)), and cell fluorescence was analyzed using fluorescent microscopy.
as §2
ConA cells were incubated two hours with Rho123 ([…]) or daunorubicin (500 ng/ml) in the presence of the identified compounds, and accumulation of the drugs was quantitated by flow cytometry.

KB-3-1 cells [4] = assay: Drug sensitivity assay, KB-3-1 cells (P-gp-negative); assay type: cell-based, human; conditions: P-gp- and MRP1-negative cells KB-3-1 (FIG. 14)
Protocol: (§3) Drug sensitivity assays. To estimate drug-mediated growth inhibition, 10^3 cells were plated per well of 96-well plates, and incubated with a range of concentrations of drugs added 24 hours after plating. After 5 to […] of drug treatment, plates were fixed and stained using 2% methylene blue solution in 50% methanol. After elution by 1% SDS solution, optical density was determined on a Multiscan Ascent reader (Lybsystems, Helsinki, Finland) at 650 nm.
as §1

KB-3-1 cells [5] = assay: Rho123 accumulation in P-gp-negative KB-3-1 cells; assay type: cell-based, human
KB-8-5-11 cells = assay: Drug sensitivity assay, KB-8-5-11 cells (P-gp-positive); assay type: cell-based, human
Protocol: as §3, §1

[6] = ConA cells grown 72 hours with drug with or without Compound 102 (FIG. 6)

SMILES: Cc1ccc(-c2cn3c4c(sc3n2)CCCC4)cc1 [Compound 102, 2-p-Tolyl-5,6,7,8-tetrahydro-benzo[d]imidazo[2,1-b]thiazole]
- cell sensitivity to Adr (ConA cells; [6]): decreases sensitivity
- cell sensitivity to taxol (ConA cells; [6]): increases sensitivity
- shift in 50% growth inhibitory dose of Adr (ConA cells; murine ConA cells): six-fold
- cell sensitivity to vinblastine (SW1753-A120 cells; MRP1-positive cells SW1753-A120 (FIG. 13)): does not effect
- cell sensitivity to doxorubicin (SW1753-A120 cells; MRP1-positive cells SW1753-A120 (FIG. 16)): does not effect
- time after adding the compound at which effect on Rho123 efflux can be detected (P-gp [1]): within five minutes
- taxol accumulation (P-gp [2]): increases taxol accumulation
- Rho123 accumulation (P-gp [3]): reduction of Rho123 accumulation
- cell sensitivity to vinblastine (KB-3-1 cells [4]): does not effect
- Rho123 accumulation (KB-3-1 cells [5]): no influence
- effect on cell sensitivity to Adr and taxol, colony assays (KB-8-5-11 cells; KB-8-5-11 vs KB-3-1 cells (FIG. 7)): dose dependent
- cell sensitivity to vinblastine (KB-8-5-11 cells; P-gp-positive cells KB-8-5-11 (FIG. 12)): decreases vinblastine resistance; also recorded: sensitizes
- cell sensitivity to doxorubicin (KB-8-5-11 cells; P-gp-positive cells KB-8-5-11 (FIG. 15)): increases doxorubicin resistance; also recorded: increase cell sensitivity
- shift in 50% growth inhibitory dose of Adr (KB-8-5-11 cells; human KB-8-5-11 cells): six-fold
